Drawing on publication PMC13438671, this text covers binding for 1 molecule.

For the test, the target named is PfGCN5 Del3 second copy, C-terminally FLAG-tagged (Del3 rescue line) (P. falciparum). As to the kind of experiment: affinity purification with mass spectrometry; anti-FLAG magnetic beads on lysates of the WT and deletion rescue lines in the absence of rapamycin; LC-MS/MS.

Results are given in words; binding and its absence hold for the method and conditions named. In cells and extracts the contact can be indirect. Here binding means that the protein was enriched with, or labelled near, the bait; the list need not be complete.

B1: adaptor protein 14-3-3I (PF3D7_0818200) (protein, UniProt C0H4V6 1-262)
chain: MATSEELKQLRCDCTYRSKLAEQAERYDEMADAMRTLVEQCVNNDKDELTVEERNLLSVAYKNAVGARRASWRIISSVEQKEMSKANVHNKNVAATYRKKVEEELNNICQDILNLLTKKLIPNTSESESKVFYYKMKGDYYRYISEFSCDEGKKEASNCAQEAYQKATDIAENELPSTHPIRLGLALNYSVFFYEILNQPHQACEMAKRAFDDAITEFDNVSEDSYKDSTLIMQLLRDNLTLWTSDLQGDQTEEKSKDEGLE
In the case of B1, the binding result was “binds”.
